Measured values as given in the supplement of paper PMC10338343.
± gives the standard deviation. This is a selection; strong and weak results do not stand in their true shares. The uncertainty is large for many entries.

Test system: EfPiwi piRISC loaded with piRNA #1 (26 nt)
Experiment: pre-steady-state target cleavage rate (min^-1); guide: piRNA #1 5'p-UGAGGUAGUAGGUUGUAUAGUAUCCA; MIWI and MILI are mouse PIWI proteins and EfPiwi is from a freshwater sponge; tags in brackets are library labels; higher = faster piRNA-guided slicing of the target
Conditions: auxiliary factor: 500 nM Ephydatia muelleri Gtsf1
Method in brief: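 A burst-and-steady-state fit was used to obtain the pre-steady-state cleavage rate. The input data were sequencing reads of uncleaved targets, normalised to depth and to weakly complementary targets, from a […] transcribed, DNA-blocked target RNA library mixed with 1 nM active affinity-purified piRISC holding one synthetic guide, with or without 500 nM GTSF1 partner protein, in HEPES–potassium acetate buffer at 33 °C for 0–8 or 0–960 min. Three trials were pooled and k3 was capped at 0.0001 min^-1.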

Row | Sequence | pre-steady-state target cleavage rate
1 | GGAGUGGAUACUGUACAACCUACUACCUCA | 0.109 ± 0.039
2 | GGAGACCUAUCUAUACAACGUACUACCACA | 0.00343 ± 0.0031
3 | GGAGACCUAACUUUACAUCCUACUACCUCA | 0.00237 ± 0.0048
4 | GGAGACCAUUACUAUACAACCUACUACCUCA | 0.148 ± 0.044
5 | GGAGACCUUACUAAACAACGUACUACCUCA | 0.00154 ± 0.006
6 | GGAGACCAUACUAAACAACCUACUACCACA | 0.000755 ± 0.013
7 | GGAGACCUAUGUAUGACAACCUACUACCUCA | 0.0022 ± 0.0043
8 | GGAGAGGAUACUAUUCAACCUACAACCUCA | 0.00238 ± 0.0017
9 | GGAGACCAUACUAUACAACCUAGCUACCUCA | 0.00373 ± 0.0029
10 | GGAGACCUAUCUAAUACAACCUACUACCUCA | 0.00579 ± 0.004
11 | GGAGACCUAUGAUAUCAACCUACUAGGUCA | 0.000391 ± 0.0098
12 | GGAGUGGAUUCUAUACAACCUACUUCCUCA | 0.00228 ± 0.0036
13 | GGAGAGGAUACUAUACUACCUAGUACCUCA | 0.00301 ± 0.0017
14 | GGAGACCUAUCUAUACAUCGUACUACCUCA | 0.00119 ± 0.0067
15 | GGAGAGGAUACUAUACAACCAACUACCUGA | 0.00332 ± 0.0017
16 | GGAGACGUUUCUAUACAACCUACUACCUCA | 0.0117 ± 0.0062
17 | GGAGACCUAAGUAUACAACCUACAACCUCA | 0.00149 ± 0.0035
18 | GGAGACCUAUGAUAUGUUCCUACUAUCUCA | 0.000209 ± 0.011
19 | GGAGAGGAUAGAAUACAACCUACUACCUCA | 0.00366 ± 0.004
20 | GGAGACCUAUCUAUACAACCUAGAACCUCA | 0.000228 ± 0.017

Row | Sequence | pre-steady-state target cleavage rate
21 | GGAGACCUAUCUAUACAACCUUCUUCCUCA | 0.000355 ± 0.0084
22 | GGAGACCUAUGUAUACAAGGUACUACCUCA | 0.00169 ± 0.004
23 | GGAGACCUAUGUAUACAUCCUUCUACCUCA | 0.000959 ± 0.0051
24 | GGAGACCUUACUAUUCAACCUACUACGUCA | 0.00118 ± 0.0034
25 | GGAGAGGUUACUAUACUACCUACUACCUCA | 0.00488 ± 0.0024
26 | GGAGACCUAUGAUAUGUUCCUACUAACUCA | 0.000163 ± 0.013
27 | GGAGACCUUACAAUACAACCUACAACCUCA | 0.000986 ± 0.0058
28 | GGAGAGGAUAGUAUACAACCUAGUACCUCA | 0.00231 ± 0.002
29 | GGAGACCUAUUUAUACAACCUACUACCUCA | 0.00367 ± 0.007
30 | GGAGUGGUUACUAUACAACCUACUACCACA | 0.00384 ± 0.0022
31 | GGAGACCAUAGUAUACAACGUACUACCUCA | 0.00187 ± 0.0033
32 | GGAGACCUUACUAUACAACCGACUACCUCA | 0.00553 ± 0.0036
33 | GGAGACCUUAGUAUACAACCUAGUACCUCA | 0.00169 ± 0.0027
34 | GGAGAGGAUACUUUACUACCUACUACCUCA | 0.003 ± 0.0031
35 | GGAGACCAUUCUAUACAACCUACAACCUCA | 0.00312 ± 0.0031
36 | GGAGACCUAACUAUACAAGCUACUAGCUCA | 0.00384 ± 0.0055
37 | GGAGACCAUAUCUAUACAACCUACUACCUCA | 0.124 ± 0.051
38 | GGAGACCUUAGUUUACAACCUACUACCUCA | 0.00216 ± 0.0046
39 | GGAGACCUAUCUUUACAACCUACUUCCUCA | 0.00199 ± 0.005
40 | GGAGUGGAAACUAUACAACCUACUACCACA | 0.00336 ± 0.0029

From no. 31 as far as 33, copied from above:
Row | Sequence | pre-steady-state target cleavage rate
31 | GGAGACCAUAGUAUACAACGUACUACCUCA | 0.00187 ± 0.0033
32 | GGAGACCUUACUAUACAACCGACUACCUCA | 0.00553 ± 0.0036
33 | GGAGACCUUAGUAUACAACCUAGUACCUCA | 0.00169 ± 0.0027
